# According to US20050197336A1 (Miikana Therapeutics Corporation, priority 2004, published 2005):
# At least one structure is not confirmed: it was looked up by name or label, or the drawing left a doubt.
# Test system: Histone deacetylase (HDAC), HeLa cell nuclear extract
# Assay: In vitro fluorescent histone deacetylase assay (Biomol kit, HeLa cell nuclear extract)
# Type: biochemical
# Conditions: compound at 100 μM; HeLa cell nuclear extract as HDAC source; substrate 50 μM; 10 min at room temperature
# Description: Histone deacetylase (HDAC) activity assays were performed using the HDAC fluorescent activity assay/drug discovery kit (Biomol Research Laboratories, Plymouth Meeting, Pa.) essentially according to the manufacturer's instructions. The included HeLa cell nuclear extract, which contains a mosaic of HDAC enzymes and other nuclear factors, was used as the source of HDAC activity. The final substrate concentration in the assay mixture was 50 μM. The reaction was allowed to proceed for 10 min at room temperature before stopping the reaction. Test compounds were prepared as 20 mM stock solutions in DMSO (Molecular Biology grade, Sigma-Aldrich Co. St. Louis, Mo.) and stored at −70° C. Serial dilutions of test compounds were prepared in assay buffer immediately prior to testing. DMSO was determined in a separate trial to have no significant effect on the activity of this assay at concentrations up to 5%; the final DMSO concentration in the wells was no more than 2% and therefore DMSO effects were safely neglected. Assays were performed in white polystyrene 96-well half-area assay plates (Corning, Corning, N.Y.) and measured on a Wallace 1420 fluorescent plate reader (Wallac Oy, Turku, Finland) with an excitation wavelength of 355 nm, an emission wavelength of 460 nm, and a 1 sec signal averaging time.
row,Structure (SMILES),% inhibition HDAC @ 100 μM [%]
1,"O=C(NO)c1cnc(N2CCN(S(=O)(=O)c3ccc(C(F)(F)F)cc3)CC2)s1 [Example 5, 2-[4-(4-trifluoromethyl-benzenesulfonyl)-piperazin-1-yl]-thiazole-5-carboxylic acid hydroxyamide]",85
2,"CC(=O)c1ccc(S(=O)(=O)N2CCN(c3ncc(C(=O)NO)s3)CC2)cc1 [Example 7, 2-[4-(4-acetyl-benzenesulfonyl)-piperazin-1-yl]-thiazole-5-carboxylic acid hydroxyamide]",98
3,"O=C(NO)c1cnc(N2CCN(S(=O)(=O)c3ccc(Cl)c(Cl)c3)CC2)s1 [Example 15, 2-[4-(3,4-dichlorolphenylsulfonyl)-piperazin-1-yl]-thiazole-5-carboxylic acid hydroxyamide]",92
4,"O=C(NO)c1cnc(N2CCN(S(=O)(=O)c3ccccc3Cl)CC2)s1 [Example 17, 2-[4-(2-chlorophenalsulfonyl)-piperazin-1-yl]-thiazole-5-carboxylic acid hydroxyamide]",96
5,"O=C(NO)c1cnc(N2CCN(S(=O)(=O)c3ccc4c(c3)CCO4)CC2)s1 [Example 42, 2-[4-(2,3-dihydrobenzofuransulfonyl)-piperazin-1-yl]-thiazole-5-carboxylic acid hydroxyamide]",98
6,"O=C(NO)c1cnc(N2CCN(S(=O)(=O)c3ccc4c(c3)OCCO4)CC2)s1 [Example 44, 2-[4-(3,4-benzodioxansulfonyl)-piperazin-1-yl]-thiazole-5-carboxylic acid hydroxyamide]",98
7,"O=C(NO)c1cnc(N2CCN(S(=O)(=O)c3cc(F)cc(F)c3)CC2)s1 [Example 52, 2-[4-(3,5-difluorophenylsulfonyl)-piperazin-1-yl]-thiazole-5-carboxylic acid hydroxyamide]",96
8,"O=C(NO)c1cnc(N2CCN(S(=O)(=O)c3ccc(Cl)cc3)CC2)s1 [Example 54, 2-[4-(chlorophenalsulfonyl)-piperazin-1-yl]-thiazole-5-carboxylic acid hydroxyamide]",100
9,"Cl.O=C(NO)c1cnc(N2CCN(S(=O)(=O)c3ccc(-c4ccc[nH]4)cc3)CC2)s1 [Example 67, 2-(4-{[4-(1H-pyrrol-2-yl)phenyl]sulfonyl}piperazin-1-yl)-1,3-thiazole-5-carboxylic acid hydroxyamide]",100
10,"O=C(NO)c1cnc(N2CCN(S(=O)(=O)c3ccc(-c4ccc(C(=O)N5CCOCC5)cc4)cc3)CC2)s1 [Example 69, 2-[4-(4′-(morpholin-4-ylcarbonyl)-1,1′-biphenylsulfonyl)piperazin-1-yl]-1,3-thiazole-5-carboxylic acid hydroxyamide]",100
11,"CS(=O)(=O)Nc1ccc(-c2ccc(S(=O)(=O)N3CCN(c4ncc(C(=O)NO)s4)CC3)cc2)cc1 [Example 70, 2-[4-(4′-methylsulfonylamino-1,1′-biphenylsulfonyl)piperazin-1-yl]-1,3-thiazole-5-carboxylic acid hydroxyamide]",99
12,"CN(C)c1cccc(-c2ccc(S(=O)(=O)N3CCN(c4ncc(C(=O)NO)s4)CC3)cc2)c1 [Example 71, 2-[4-(3′-(dimethylamino)-1,1′-biphenylsulfonyl)piperazin-1-yl]-1,3-thiazole-5-carboxylic acid hydroxyamide]",100
13,"CN(C)CCN(C)Cc1cccc(-c2ccc(S(=O)(=O)N3CCN(c4ncc(C(=O)NO)s4)CC3)cc2)c1 [Example 85, 2-{4-[3′-{[(2-(dimethylamino)ethyl)(methyl)amino]methyl}-1,1′-biphenylsulfonyl]piperazin-1-yl}-1,3-thiazole-5-carboxylic acid hydroxyamide]",100
14,"CCc1ccc(S(=O)(=O)N2CCN(c3ncc(C(=O)NO)s3)CC2)cc1 [Example 100, 2-[4-(4-Ethylbenzenesulfonyl)piperazin-1-yl]-thiazole-5-carboxylic acid hydroxyamide]",96
15,"O=C(NO)c1cnc(N2CCN(S(=O)(=O)c3ccc(-n4cccn4)cc3)CC2)s1 [Example 101, 2-[4-(4-pyrazolylbenzenesulfonyl)-piperazin-1-yl]-thiazole-5-carboxylic acid hydroxyamide]",100
